Measurements as given in patent publication US9840464B2, “IAP binding compounds” (TetraLogic Birinapant UK Ltd., priority 2004, dated 2017).
The match of structure and compound is tentative.

By UniProt entry, the sequences of proteins in these tests, tags left out. Residues count along the entry.
UniProt P98170, 241-356 limits assumed: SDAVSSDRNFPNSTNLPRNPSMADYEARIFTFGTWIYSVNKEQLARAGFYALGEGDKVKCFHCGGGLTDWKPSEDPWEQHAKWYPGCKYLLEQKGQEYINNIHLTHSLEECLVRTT

molecular target: XIAP-BIR3 (Homo sapiens, UniProt P98170); experiment: XIAP BIR3 fluorescence polarization binding assay (competition with AbuRPF-K(5-Fam)-NH2); conditions: read-out: KD Range; 5 nM AbuRPF-K(5-Fam)-NH2, 40 nM XIAP-BIR3, pH 7.5; Kd calculated from measured IC50
Description: Binding constants (Kd) were measured using fluorescence polarization as described by Zaneta Nikolovska-Coleska, Renxiao Wang, Xueliang Fang, Hongguang Pan, York Tomita, Peng Li, Peter P. Roller, Krzysztof Krajewski, Naoyuki Saito, Jeanne Stuckey and Shaomeng Wang, in “Development and Optimization of a Binding Assay for the XIAP BIR3 Domain Using Fluorescence Polarization”, Analytical Biochemistry 2004, 332, 261-273). Briefly, test IAP binding compounds at various concentrations for binding measurements were mixed with 5 nM fluorescently labeled peptide (AbuRPF-K(5-Fam)-NH2) and 40 nM of XIAP-BIR3 for 15 minutes at room temperature in 100 μL of 0.1M Potassium Phosphate buffer, pH 7.5 containing 100 μg/ml bovine γ-globulin. Following incubation, the polarization values (mP) were measured on a Victor^2V using a 485 nm excitation filter and a 520 nm emission filter. IC50 values were determined from the plot using nonlinear least-squares analysis using GraphPad Prism. The Kd values of competitive inhibitors were calculated using the equation described by Zaneta Nikolovska-Coleska et al. based upon the measured IC50 values, the Kd value of the probe and XIAP BIR3 complex, and the concentrations of the protein and probe in the competition assay. In various examples of IAP binding or IAP binding cargo molecules ranges for Kd values: Group A: Kd<0.1 μM; Group B: Kd=0.1-1 μM; Group C: Kd=1-10 μM; Group D: Kd>10 μM.

SMILES	Kd [µM]
CN[C@@H](C)C(=O)N[C@H](C(=O)N1CCC[C@H]1Cc1coc2ccccc12)C1CCCCC1	< 0.1
COc1ccc(-c2oc3ccccc3c2C[C@@H]2CCCN2C(=O)[C@@H](NC(=O)[C@H](C)N)C(C)C)cn1	0.1 to 1
CC(C)[C@H](NC(=O)[C@H](C)N)C(=O)N1C[C@@H](Oc2ccccc2)C[C@H]1/C=C/COc1ccc2c(c1)CCCC2	1 to 10
CC(C)[C@H](NC(=O)CN)C(=O)N1CCC[C@H]1CCCOc1ccccc1-c1ccccc1	> 10
CC(C)[C@H](NC(=O)[C@H](C)N)C(=O)N1CCC[C@H]1Cc1c(-c2ccccn2)oc2ccccc12	< 0.1
CN[C@@H](C)C(=O)N[C@H](C(=O)N1CCC[C@H]1Cc1cn(CCOCCOCCOC)c2cc(F)ccc12)C(C)(C)C	0.1 to 1
Cc1ccc2occ(C[C@@H]3CCCN3C(=O)[C@@H](NC(=O)[C@H](C)N)C(C)C)c2c1	< 0.1
C[C@H](N)C(=O)N[C@H](C(=O)N1C[C@@H](Oc2ccccc2)C[C@H]1Cc1coc2ccccc12)C1CCCCC1	< 0.1

test system: SK-OV-3 cells; experiment: MTT cell growth/survival assay; conditions: read-out: EC50, μM (±sd), 72 hrs incubation, drug concentration that results in 50% cell survival
Description: The MTT assay is an example of an assay that has been used for measuring cell growth as previously described (Hansen, M. B., Nielsen, S. E., and Berg, K. J. Immunol. Methods 1989, 119, 203-210) and incorporated herein by reference in its entirety. Briefly, SK-OV-3 cells were seeded in 96-well plates in McCoy's medium containing 10% fetal bovine serum […] (20,000 per well) and incubated overnight at 37° C. Next day, test compounds were added at various concentrations typically from about 10 to about 0.0001 μM and the plates were incubated at 37° C. for an additional 72 hrs. This incubation time was optimal for measuring inhibitory effects of different analogs. 50 microliters of 5 mg/mL MTT reagent to each well was added and the plates were incubated at 37° C. for 3 hours. At the end of incubation period, 50 microliters of DMSO was added to each well to dissolve cells and the optical density (OD) of the wells was measured with a microplate reader (Victor^2 1420, Wallac, Finland) at 535 nm. Cell survival (CS) was calculated by the following equation: CS=(OD treated well/mean OD control wells)×100%
The EC50, defined as the drug concentration that results in 50% CS, was derived by calculating the point where the dose-response curve crosses the 50% CS point using GraphPad Prism.

SMILES	EC50 [µM]
CN[C@@H](C)C(=O)N[C@H](C(=O)N1CCC[C@H]1Cc1cn(CCOCCOCCOC)c2cc(F)ccc12)C(C)(C)C	0.092
